Measurements from PubChem BioAssay AID540276 (National Center for Advancing Translational Sciences (NCATS), 2011).
Among all 300,000 compounds or so, about 5,400 (1.8%) were called active. Inconclusive means that the source gave no clear call. Such entries were picked first, then a sample of the others. Calls follow the shape of the full dose curve; tested in HEK293 cells. Potencies of inconclusive entries are doubtful fits and often do not repeat.

Assay: qHTS for inhibitors of binding or entry into cells for Marburg Virus
Settings: Marburg virus pseudotyped entry inhibition, cell reporter; activity change, negative = inhibition: at 37.8 µM (top of the series) unless noted
% is scaled to controls: 0 for no effect and ±100 for the full control effect; potency is read from the fitted curve at half-maximal effect.

Row | SMILES | Potency | activity change, negative = inhibition
1 | O=C(COc1ccccc1Cl)N1CCCC1 | inconclusive: 29.1 µM [activator, single point] | –
2 | CC1(C(=O)OCc2cc(=O)n3cc(Br)ccc3n2)CC1(Cl)Cl (stereo unspecified) | inconclusive: 0.184 µM [activator, full curve, poor fit] | –
3 | CCN(CC(=O)Nc1c(F)cccc1F)C(=O)CSc1nc(C)cc(C)n1 | inconclusive: 12.6 µM [activator, single point] | –
4 | O=C(CSc1c2c(nc3ccc(Cl)cc13)CCCC2)N1CCN(c2ccc(Cl)cc2)CC1 | inconclusive: 22.4 µM [activator, single point] | –
5 | COc1ccc(N2C(=O)c3ccccc3NC23CCCC3)cc1 | inconclusive: 1.58 µM [inhibitor, partial curve, poor fit] | –
6 | Cc1cccc(CSc2nnc(-c3ccccn3)n2N)c1 | – | inactive: 4.27%
7 | CC(C)CC(=O)NCCCCc1ccccc1 | inconclusive: 16.4 µM [activator, partial curve, poor fit] | –
8 | O=C(c1ccc(OC2CCN(Cc3ccccc3C(F)(F)F)CC2)cc1)N1CCCCC1 | inconclusive: 17.8 µM [inhibitor, single point] | –
9 | O=C(Nc1ccccc1)c1cc2c(-c3ccccc3)nn(-c3ccccc3)c2s1 | inconclusive: 5.62 µM [inhibitor, single point] | –
10 | CC(C)(C)c1nc(NCCO)c2nnn(Cc3ccccc3)c2n1 | inconclusive: 1.26 µM [activator, single point] | –
11 | CCCn1c(=O)c2c(C(F)(F)F)cc(-c3ccco3)nc2n(CCC)c1=O | – | inactive: 7.55%
12 | COc1ccc(Cn2nc3n(c2=O)-c2ccccc2OC3)cc1 | inconclusive: 5.01 µM [activator, single point] | –
13 | Nc1cc(-c2nn[nH]n2)ccc1F | – | inactive: -22.1%
14 | CN1C(=O)CSc2ccc(NC(=O)N3CCN(c4ccccn4)CC3)cc21 | inconclusive: 11.2 µM [inhibitor, partial curve, poor fit] | –
15 | O=C(CNc1ccc(F)cc1)N/N=C1\CCc2ccccc21 | – | inactive: -18.1% [at 14.2 µM]
16 | Cc1ccccc1NC(=O)Cn1nnc(C(=O)NCc2ccco2)c1N | inconclusive: 4.47 µM [inhibitor, full curve, poor fit] | –
17 | CN(C)CCCNc1ccc(-c2nn(C)c(=O)c3ccccc23)cc1[N+](=O)[O-] | inconclusive: 1.58 µM [inhibitor, full curve, poor fit] | –
18 | CCOC(=O)c1ccccc1NC(=O)c1cn(-c2ccc(OC)cc2)c(=O)c2ccccc12 | inconclusive: 35.5 µM [inhibitor, single point] | –
19 | NS(=O)(=O)c1ccc(CNC(=O)CSc2nc3ccc(Cl)cc3[nH]2)cc1 | inconclusive: 3.55 µM [inhibitor, partial curve, poor fit] | –
20 | COc1ccc(C2OC(=O)c3ccccc3S2)cc1 (stereo unspecified) | inconclusive: 25.9 µM [activator, single point] | –
21 | COc1cc(C(C#N)N2N=C(c3ccccc3)CC2c2ccccc2)ccc1O (stereo unspecified) | – | inactive: 2.25%
22 | COc1ccccc1C(=O)NC1(C(F)(F)F)C(=O)NC(C)=C1C#N (stereo unspecified) | – | inactive: -11.4% [at 46.1 µM]

Row | SMILES | Potency | activity change, negative = inhibition
23 | CCN(CC)S(=O)(=O)c1ccc(OC)c(NC(=O)CSc2cc(C)ccc2C)c1 | inconclusive: 35.5 µM [inhibitor, single point] | –
24 | COC(=O)c1sccc1S(=O)(=O)Nc1ccc(Cl)cc1 | inconclusive: 6.31 µM [activator, single point] | –
25 | O=C(CCCOc1ccccc1)N1CCN(c2ccccn2)CC1 | inconclusive: 22.4 µM [inhibitor, single point] | –
26 | Cc1ccc(C)c(N(CC(=O)NC2CCCC2)C(=O)c2oc(C(C)(C)C)cc2C)c1 | inconclusive: 25.9 µM [inhibitor, single point] | –
27 | CC(C)(C)C(=O)OCc1cn(-c2ccc(Cl)cc2)nn1 | – | inactive: 5.16%
28 | C#CCOc1c(Br)cc(C2C(C(=O)OC)=C(C)NC3=C2C(=O)c2ccccc23)cc1OCC (stereo unspecified) | inconclusive: 5.01 µM [inhibitor, full curve, poor fit] | –
29 | COc1ccc(Nc2nc(C)c3ccccc3n2)cc1 | inconclusive: 6.31 µM [activator, single point] | –
30 | Fc1ccccc1Cc1noc(CN2CCCC(CN3CCOCC3)C2)n1 (stereo unspecified) | inconclusive: 5.62 µM [inhibitor, single point] | –
31 | CCOC(=O)c1c(NC(=O)c2cc(=O)c3c(C)cc(C)cc3o2)sc(C)c1C | – | inactive: 8.77% [at 46.1 µM]
32 | CC(C)(C)C(=O)Nc1cc(S(=O)(=O)Nc2ccc(Cl)cc2)ccc1O | inconclusive: 17.8 µM [inhibitor, single point] | –
33 | COc1ccccc1N(C(=O)Cn1nnc(-c2ccc(C)o2)n1)C(C(=O)NC1CCCC1)c1ccncc1 (stereo unspecified) | inconclusive: 6.31 µM [inhibitor, partial curve, poor fit] | –
34 | CC(=O)Nc1ccc2nc(-c3ccccc3)cn2c1 | inconclusive: 8.2 µM [inhibitor, partial curve, poor fit] | –
35 | CCCCC(C)(O)C/C=C/[C@H]1[C@H](O)CC(=O)[C@@H]1CCCCCCC(=O)OC (stereo partly specified) | inconclusive: 20.6 µM [inhibitor, single point] | –
36 | O=[N+]([O-])c1ccc(OCc2cnc(Cl)s2)c([N+](=O)[O-])c1 | – | inactive: 11.8% [at 14.2 µM]
37 | O=C1NCCN/C1=C\C(=O)c1ccccc1 | inconclusive: 8.2 µM [activator, partial curve, poor fit] | –
38 | O=C(c1ccco1)N1CCN(C(=O)C2CCCc3c2[nH]c2ccc(Cl)cc32)CC1 (stereo unspecified) | active: 2.82 µM | –
39 | Cc1ccn2c(=O)nc(SCC(=O)Nc3ccc4c(c3)OCO4)nc2c1 | inconclusive: 25.1 µM [inhibitor, single point] | –
40 | Cc1ccc(CNC(=O)CSc2nc3ccsc3c(=O)n2Cc2ccccn2)cc1 | – | inactive: 24% [at 46.1 µM]
41 | Cc1cccc(NC(=O)c2cccc(NC(=O)c3ccco3)c2)c1C | inconclusive: 35.5 µM [inhibitor, single point] | –
42 | CCOC(=O)c1c(-c2ccccc2)oc2ccc(OC(=O)N(C)C)cc12 | inconclusive: 8.2 µM [inhibitor, partial curve, poor fit] | –
43 | COc1ccc(C(=O)c2cc3c(cc2[N+](=O)[O-])OCCO3)cc1 | inconclusive: 20 µM [inhibitor, single point] | –
44 | O=P(c1ccccc1)(c1ccccc1)c1nc(-c2ccccc2)oc1NCc1ccccc1 | inconclusive: 5.62 µM [inhibitor, partial curve, poor fit] | –

Whole records from above. Values in the order: Potency | activity change, negative = inhibition
`O=C(CCCOc1ccccc1)N1CCN(c2ccccn2)CC1` in the list: inconclusive: 22.4 µM [inhibitor, single point] | –
`CCCn1c(=O)c2c(C(F)(F)F)cc(-c3ccco3)nc2n(CCC)c1=O` in the list: – | inactive: 7.55%
`CC1(C(=O)OCc2cc(=O)n3cc(Br)ccc3n2)CC1(Cl)Cl` (stereo unspecified) in the list: inconclusive: 0.184 µM [activator, full curve, poor fit] | –
`CN1C(=O)CSc2ccc(NC(=O)N3CCN(c4ccccn4)CC3)cc21` in the list: inconclusive: 11.2 µM [inhibitor, partial curve, poor fit] | –

The list goes on:

Row | SMILES | Potency | activity change, negative = inhibition
45 | CCOC(=O)c1cc2sccc2n1CC(=O)OC(C)C | inconclusive: 0.92 µM [inhibitor, full curve, poor fit] | –
46 | COc1ccccc1CNc1ncnc2onc(-c3ccc(Cl)cc3)c12 | – | inactive: 2% [at 46.1 µM]
47 | COc1cc(/C=C2\COC/C(=C\c3cc(OC)c(OC)c(OC)c3)C2=O)cc(OC)c1OC | inconclusive: 3.55 µM [inhibitor, single point] | –
48 | CN(c1nnc(NC(=O)Nc2ccc(Br)cc2)s1)C1CCCCC1 | – | inactive: -11.4% [at 46.1 µM]
49 | Cc1[nH]c2ccccc2c1C1(O)C(=O)N(Cc2ccccc2)c2ccc(Br)cc21 (stereo unspecified) | inconclusive: 35.5 µM [inhibitor, single point] | –
50 | Cc1ccc(NC(=S)NNC(=S)NC2CCCCC2)cc1 | – | inactive: 25.6%
51 | CN(C)Cc1c(C(=O)N/N=C/c2cccc(OCc3ccc(F)cc3)c2)nnn1-c1nonc1N | inconclusive: 0.708 µM [activator, full curve, poor fit] | –
52 | Cc1ccc2nc(-c3ccc(N4CCOCC4)cc3)c(Nc3ccccc3C)n2c1 | inconclusive: 3.55 µM [activator, partial curve, poor fit] | –
53 | Nc1c(-c2ccccc2)c(CN2CCOCC2)nn1-c1ccc(C(=O)O)cc1 | inconclusive: 6.51 µM [activator, single point] | –
54 | O=C(NCC1CCCO1)C1=CC2=NC(=S)N(c3ccccc3)C(=O)C2C=C1 (stereo unspecified) | – | inactive: -14%
55 | CC1=C(C(=O)Nc2ccccn2)C(c2ccc3c(c2)OCO3)C2=C(CC(C)(C)CC2=O)N1 (stereo unspecified) | – | inactive: -2.75% [at 46.1 µM]
56 | Cc1c(F)cccc1NS(=O)(=O)c1ccc2c(c1)NC(=O)CO2 | inconclusive: 7.08 µM [inhibitor, partial curve] | –
57 | CCOc1ccc(NC(=O)COc2ccccc2)c([N+](=O)[O-])c1 | inconclusive: 35.5 µM [inhibitor, partial curve, poor fit] | –
58 | COc1ccc2cc(C(=O)C3CCCN(C(=O)c4cc5nc(C)cc(C)n5n4)C3)ccc2c1 (stereo unspecified) | – | inactive: -23.5% [at 46.1 µM]
59 | COc1ccccc1OCCNC(=O)Nc1cc(F)c(F)cc1Cl | inconclusive: 35.5 µM [inhibitor, single point] | –
60 | O=C(c1cc(Br)ccc1Cl)N1CCC2(CC1)OCCO2 | – | inactive: 13.3%
61 | COc1ccc(/C=N/NC(=O)Cn2c(Cc3ccc(OC)c(OC)c3)nc3ccccc32)cc1OC | inconclusive: 3.55 µM [activator, single point] | –
62 | Cc1cc(C)nc(NC(=NCCc2c[nH]c3ccccc23)NC(=O)Nc2ccc(Cl)c(Cl)c2)n1 | inconclusive: 7.08 µM [inhibitor, partial curve, poor fit] | –
63 | O=c1[nH]c(SCc2nc3c(cnn3-c3ccccc3)c(=O)[nH]2)nc2ccccc12 | active: 1 µM | –
64 | O=C(/C(C=Nc1cccc(C(F)(F)F)c1)=C(/O)c1ccco1)C(F)(F)F | inconclusive: 25.9 µM [activator, partial curve] | –
65 | COc1cc2c(cc1OC)C(C)N(C(=O)c1cccc([N+](=O)[O-])c1)CC2 (stereo unspecified) | – | inactive: 11.8% [at 46.1 µM]
66 | COc1ccc(-c2nnc(SCC(=O)c3cccs3)n2-c2ccc(Cl)cc2)cc1 | inconclusive: 35.5 µM [inhibitor, single point] | –

Quoted from the results shown (two entries):
Row | SMILES | Potency | activity change, negative = inhibition
61 | COc1ccc(/C=N/NC(=O)Cn2c(Cc3ccc(OC)c(OC)c3)nc3ccccc32)cc1OC | inconclusive: 3.55 µM [activator, single point] | –
62 | Cc1cc(C)nc(NC(=NCCc2c[nH]c3ccccc23)NC(=O)Nc2ccc(Cl)c(Cl)c2)n1 | inconclusive: 7.08 µM [inhibitor, partial curve, poor fit] | –
